The source of these data is patent US20220389013A1, “PYRIDOPYRIMIDINONE COMPOUNDS AND APPLICATIONS THEREOF” (BeBetter Med Inc., priority 2020, published 2022).

This data set can be described thus: in vitro. The note with it: human.

In general, efflux ratio refers to the permeability from basolateral to apical divided by that in the opposite direction, in the common usage. Broadly, the Papp A→B is the apparent permeability from the apical to the basolateral side of a cell layer. Lower therefore signals slow passage. The Papp B→A is how fast a substance crosses the layer from the basolateral side. Regarding `CC(C)NCC(O)COc1ccc(CC(N)=O)cc1` (stereo not shown) [Atenolol], the efflux ratio at 90 min, 10 μM (Caco-2, pH 7.4) stood at 0.95. The same compound showed an apparent permeability from apical to basolateral (Papp A→B) at 90 min, 10 μM (Caco-2, pH 7.4, Papp A-B Sample_01) of 0.52 ×10⁻⁶ cm/s; a Papp A→B at 90 min, 10 μM (Caco-2, pH 7.4, Papp A-B Sample_02) of 0.57 ×10⁻⁶ cm/s; a Papp A→B at 90 min, 10 μM (Caco-2, pH 7.4, Papp A-B mean value) of 0.55 ×10⁻⁶ cm/s. The Papp B→A at 90 min, 10 μM is, setting by setting: (Caco-2, pH 7.4, Papp B-A Sample_01) 0.5 ×10⁻⁶ cm/s; (Caco-2, pH 7.4, Papp B-A Sample_02) 0.54 ×10⁻⁶ cm/s; (Caco-2, pH 7.4, Papp B-A mean value) 0.52 ×10⁻⁶ cm/s.
